# According to patent US11560352B2, “P62-ZZ small molecule modulators” (University of Pittsburgh—Of the Commonwealth System of …, priority 2015, dated 2023):
# Where a name gives a salt, the structure may show the parent alone. At least one compound was matched to its structure with a doubt left.
# Test system: RPMI-8226 human multiple myeloma xenograft
# Experiment: subcutaneous RPMI-8226 human multiple myeloma xenograft model: efficacy and tolerability
# Type: in vivo
# Protocol: The therapeutic efficacy and tolerability of compound XIELP1-106 (also referred to as 10b) was evaluated in the treatment of subcutaneous RPMI-8226 human multiple myeloma xenograft model. The tumor volumes in the two groups at different time points are shown FIG. 3. The mean tumor volume of the XIELP1-106 vehicle control group reached 1,452 mm3 on day 39 after tumor implantation. The treatment of XIELP1-106 (60 mg/kg, ip, q3d×4 wks) produced a strong antitumor activity with T/C value of 23% (p=0.001).
# The median survival time (MST) of the vehicle treated mice was 42 days (FIG. 4).
compound,measurement,setting,value
"Fc1ccc(COc2ccc(CNCC3CCCCC3)cc2OCc2ccc(F)cc2)cc1 [XIELP1-106, N-(3,4-bis((4-fluorobenzyl)oxy)benzyl)-1-cyclohexylmethanamine Hydrochloride]",survival (animal death),"60 mg/kg ip q3d×4 wks, study end 60 days post tumor inoculation, vehicle MST 42 days",no animal death occurred until the end of the study
same,survival time of subcutaneous RPMI-8226 tumor-bearing mice,"at the given dose level (60 mg/kg ip q3d×4 wks), summary statement",significantly prolonged the survival time
